The record followed here is US6737537B2, “Platinum (II) antitumor compounds” (Parker Hughes Institute, priority 1999, dated 2004).

SMILES strings stand for the structures.

The assay relates to MDA-MB-231 (Breast Cancer). Nature of the assay: MTT cytotoxicity assay, MDA-MB-231 cells, 48 hours. Format: cell-based. The following applies: 48 hours incubation, read-out: IC50 [MTT Assays] MDA-MB-231 (Breast Cancer). On the procedure:
Cytotoxicity was determined by MTT assays and the IC50 values were determined using Graphpad Prism Software.

By IC50 is commonly meant the concentration at which inhibition is half-maximal. `N.N.[Cl][Pt][Cl]` [Cisplatin, reference compound]: the half-inhibitory concentration (IC50) came out at 51.6 ± 6.8 µM.
